Data: article PMC8325689
Results are given in words; binding and its absence hold for the method and conditions named. Binding seen in cells or lysates may run through a third protein. Some binding calls cover weakened binding; strength is not graded here. For some assays here: Sequences can lack the tags named with a protein. One block for each molecule: values may come before it.

Amino acid sequences for entries named in this document (tags omitted).
UniProt P63208: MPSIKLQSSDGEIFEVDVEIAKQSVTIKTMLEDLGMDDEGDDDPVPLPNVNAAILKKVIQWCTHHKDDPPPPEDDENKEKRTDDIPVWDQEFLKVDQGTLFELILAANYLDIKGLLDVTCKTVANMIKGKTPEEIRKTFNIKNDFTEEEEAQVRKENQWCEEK

How the values were obtained:
[1] = target: T1, heterogeneous nuclear ribonucleoprotein L (hnRNPL), endogenous (human (endogenous in HEK293T, A2780, OVCAR8)) (UniProt P14866); assay: co-IP; endogenous hnRNPL immunoprecipitated with anti-hnRNPL antibody from A2780 cell lysate, immunoblot for SKP1 and CUL1
T1 sequence: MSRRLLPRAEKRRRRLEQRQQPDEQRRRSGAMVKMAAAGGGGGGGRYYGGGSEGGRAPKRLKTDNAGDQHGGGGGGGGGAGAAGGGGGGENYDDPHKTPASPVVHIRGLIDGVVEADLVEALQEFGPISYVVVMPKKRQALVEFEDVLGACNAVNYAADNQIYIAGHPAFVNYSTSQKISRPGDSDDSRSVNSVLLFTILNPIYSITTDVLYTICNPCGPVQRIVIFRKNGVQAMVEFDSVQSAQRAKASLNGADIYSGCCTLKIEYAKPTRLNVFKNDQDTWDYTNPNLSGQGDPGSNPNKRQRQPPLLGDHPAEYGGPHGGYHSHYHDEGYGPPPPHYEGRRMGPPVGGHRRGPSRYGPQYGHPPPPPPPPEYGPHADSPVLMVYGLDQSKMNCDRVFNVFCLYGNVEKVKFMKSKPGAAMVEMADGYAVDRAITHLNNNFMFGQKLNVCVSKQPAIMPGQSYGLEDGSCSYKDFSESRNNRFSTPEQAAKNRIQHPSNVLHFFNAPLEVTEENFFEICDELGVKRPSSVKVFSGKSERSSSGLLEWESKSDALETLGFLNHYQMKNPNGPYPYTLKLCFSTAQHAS

[2] = target: T1, heterogeneous nuclear ribonucleoprotein L (hnRNPL), endogenous (human (endogenous in HEK293T, A2780, OVCAR8)); assay: co-IP; endogenous IP with anti-hnRNPL and protein A/G beads overnight at 4 °C from lysates of A2780 and OVCAR8 cells treated with 10 µM MG132 for 4 h, blot with anti-FBXO16
[3] = target: T2, full-length FLAG-hnRNPL (1-583) (human (gene amplified from HEK293T cells)) (UniProt P14866); assay: co-IP; lysates of HEK293T cells transiently expressing FLAG-hnRNPL (1-583) or its deletion mutants, FLAG M2 beads, blot with anti-FBXO16 for endogenous FBXO16
T2 sequence: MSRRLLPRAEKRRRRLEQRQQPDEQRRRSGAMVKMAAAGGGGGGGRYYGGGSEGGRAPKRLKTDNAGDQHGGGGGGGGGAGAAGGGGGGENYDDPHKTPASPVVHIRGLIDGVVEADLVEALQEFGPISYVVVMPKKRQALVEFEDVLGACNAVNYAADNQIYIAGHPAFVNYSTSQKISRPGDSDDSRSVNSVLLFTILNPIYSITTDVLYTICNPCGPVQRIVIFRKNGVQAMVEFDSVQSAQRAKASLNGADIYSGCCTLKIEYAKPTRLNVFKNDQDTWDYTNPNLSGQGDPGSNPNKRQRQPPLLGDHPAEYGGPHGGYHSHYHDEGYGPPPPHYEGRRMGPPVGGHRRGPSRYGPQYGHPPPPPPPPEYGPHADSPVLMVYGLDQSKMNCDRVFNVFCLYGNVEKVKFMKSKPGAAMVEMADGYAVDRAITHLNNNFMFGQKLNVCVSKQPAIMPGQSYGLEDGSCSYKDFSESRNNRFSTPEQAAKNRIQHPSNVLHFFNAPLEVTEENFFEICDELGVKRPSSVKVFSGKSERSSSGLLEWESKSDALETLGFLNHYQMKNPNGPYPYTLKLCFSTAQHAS

[4] = target: T3, FLAG-FBXO16 (full-length) (human (gene amplified from HEK293T cells)) (UniProt Q8IX29); assay: co-IP; lysates of HEK293T cells expressing FLAG-FBXO16 (stable or transient) or its deletion mutants, FLAG M2 beads 4 h at 4 °C, IP buffer (150 mM NaCl, 20 mM Tris-HCl pH 8.0, 0.5 mM EDTA, 0.5% NP-40), eluted with 3xFLAG peptide, blot for endogenous hnRNPL
T3 sequence: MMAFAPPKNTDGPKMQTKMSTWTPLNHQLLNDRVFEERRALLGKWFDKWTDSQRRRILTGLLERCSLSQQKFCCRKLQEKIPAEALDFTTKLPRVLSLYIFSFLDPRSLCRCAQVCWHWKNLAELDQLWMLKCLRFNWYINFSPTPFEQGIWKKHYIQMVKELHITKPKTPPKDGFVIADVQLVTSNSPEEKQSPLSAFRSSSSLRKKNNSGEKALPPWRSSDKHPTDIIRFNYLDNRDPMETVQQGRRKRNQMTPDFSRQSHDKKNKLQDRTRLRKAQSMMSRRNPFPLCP

[5] = target: T4, GST-FBXO16 (human (gene amplified from HEK293T cells)) (UniProt Q8IX29); assay: pull-down; GST-FBXO16 immobilized on GST-Sepharose beads, incubated with lysate of 293T cells transfected with HA-hnRNPL, immunoblot; only the target purified
T4 sequence: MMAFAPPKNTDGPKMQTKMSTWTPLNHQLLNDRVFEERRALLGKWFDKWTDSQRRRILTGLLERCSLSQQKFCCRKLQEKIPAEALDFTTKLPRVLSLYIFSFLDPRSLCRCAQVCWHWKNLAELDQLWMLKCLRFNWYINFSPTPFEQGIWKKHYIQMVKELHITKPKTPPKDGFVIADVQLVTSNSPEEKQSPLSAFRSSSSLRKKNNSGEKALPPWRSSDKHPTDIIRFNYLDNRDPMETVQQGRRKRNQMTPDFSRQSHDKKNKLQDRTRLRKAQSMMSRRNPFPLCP

binding [1]: binds
Molecule: SKP1, endogenous (from UniProt P63208 1-163)

binding [2]: binds
binding [3]: binds
B1: FBXO16, endogenous (protein, UniProt Q8IX29 1-292)
chain: MMAFAPPKNTDGPKMQTKMSTWTPLNHQLLNDRVFEERRALLGKWFDKWTDSQRRRILTGLLERCSLSQQKFCCRKLQEKIPAEALDFTTKLPRVLSLYIFSFLDPRSLCRCAQVCWHWKNLAELDQLWMLKCLRFNWYINFSPTPFEQGIWKKHYIQMVKELHITKPKTPPKDGFVIADVQLVTSNSPEEKQSPLSAFRSSSSLRKKNNSGEKALPPWRSSDKHPTDIIRFNYLDNRDPMETVQQGRRKRNQMTPDFSRQSHDKKNKLQDRTRLRKAQSMMSRRNPFPLCP

binding [4]: binds
B2: heterogeneous nuclear ribonucleoprotein L (hnRNPL), endogenous (protein, UniProt P14866 1-589)
chain: MSRRLLPRAEKRRRRLEQRQQPDEQRRRSGAMVKMAAAGGGGGGGRYYGGGSEGGRAPKRLKTDNAGDQHGGGGGGGGGAGAAGGGGGGENYDDPHKTPASPVVHIRGLIDGVVEADLVEALQEFGPISYVVVMPKKRQALVEFEDVLGACNAVNYAADNQIYIAGHPAFVNYSTSQKISRPGDSDDSRSVNSVLLFTILNPIYSITTDVLYTICNPCGPVQRIVIFRKNGVQAMVEFDSVQSAQRAKASLNGADIYSGCCTLKIEYAKPTRLNVFKNDQDTWDYTNPNLSGQGDPGSNPNKRQRQPPLLGDHPAEYGGPHGGYHSHYHDEGYGPPPPHYEGRRMGPPVGGHRRGPSRYGPQYGHPPPPPPPPEYGPHADSPVLMVYGLDQSKMNCDRVFNVFCLYGNVEKVKFMKSKPGAAMVEMADGYAVDRAITHLNNNFMFGQKLNVCVSKQPAIMPGQSYGLEDGSCSYKDFSESRNNRFSTPEQAAKNRIQHPSNVLHFFNAPLEVTEENFFEICDELGVKRPSSVKVFSGKSERSSSGLLEWESKSDALETLGFLNHYQMKNPNGPYPYTLKLCFSTAQHAS

binding [5]: binds
B3: HA-hnRNPL (protein, UniProt P14866 1-589)
chain: MSRRLLPRAEKRRRRLEQRQQPDEQRRRSGAMVKMAAAGGGGGGGRYYGGGSEGGRAPKRLKTDNAGDQHGGGGGGGGGAGAAGGGGGGENYDDPHKTPASPVVHIRGLIDGVVEADLVEALQEFGPISYVVVMPKKRQALVEFEDVLGACNAVNYAADNQIYIAGHPAFVNYSTSQKISRPGDSDDSRSVNSVLLFTILNPIYSITTDVLYTICNPCGPVQRIVIFRKNGVQAMVEFDSVQSAQRAKASLNGADIYSGCCTLKIEYAKPTRLNVFKNDQDTWDYTNPNLSGQGDPGSNPNKRQRQPPLLGDHPAEYGGPHGGYHSHYHDEGYGPPPPHYEGRRMGPPVGGHRRGPSRYGPQYGHPPPPPPPPEYGPHADSPVLMVYGLDQSKMNCDRVFNVFCLYGNVEKVKFMKSKPGAAMVEMADGYAVDRAITHLNNNFMFGQKLNVCVSKQPAIMPGQSYGLEDGSCSYKDFSESRNNRFSTPEQAAKNRIQHPSNVLHFFNAPLEVTEENFFEICDELGVKRPSSVKVFSGKSERSSSGLLEWESKSDALETLGFLNHYQMKNPNGPYPYTLKLCFSTAQHAS
